# Reference: the supplement of paper PMC8728848
# This is one part of the list.
# B1: Latrophilin-3 (Homo sapiens), Q9HAR2 (protein)
# chain: MWPSQLLIFMMLLAPIIHAFSRAPIPMAVVRRELSCESYPIELRCPGTDVIMIESANYGRTDDKICDSDPAQMENIRCYLPDAYKIMSQRCNNRTQCAVVAGPDVFPDPCPGTYKYLEVQYECVPYKVEQKVFLCPGLLKGVYQSEHLFESDHQSGAWCKDPLQASDKIYYMPWTPYRTDTLTEYSSKDDFIAGRPTTTYKLPHRVDGTGFVVYDGALFFNKERTRNIVKFDLRTRIKSGEAIIANANYHDTSPYRWGGKSDIDLAVDENGLWVIYATEQNNGKIVISQLNPYTLRIEGTWDTAYDKRSASNAFMICGILYVVKSVYEDDDNEATGNKIDYIYNTDQSKDSLVDVPFPNSYQYIAAVDYNPRDNLLYVWNNYHVVKYSLDFGPLDSRSGQAHHGQVSYISPPIHLDSELERPSVKDISTTGPLGMGSTTTSTTLRTTTLSPGRSTTPSVSGRRNRSTSTPSPAVEVLDDMTTHLPSASSQIPALEESCEAVEAREIMWFKTRQGQIAKQPCPAGTIGVSTYLCLAPDGIWDPQGPDLSNCSSPWVNHITQKLKSGETAANIARELAEQTRNHLNAGDITYSVRAMDQLVGLLDVQLRNLTPGGKDSAARSLNKAMVETVNNLLQPQALNAWRDLTTSDQLRAATMLLHTVEESAFVLADNLLKTDIVRENTDNIKLEVARLSTEGNLEDLKFPENMGHGSTIQLSANTLKQNGRNGEIRVAFVLYNNLGPYLSTENASMKLGTEALSTNHSVIVNSPVITAAINKEFSNKVYLADPVVFTVKHIKQSEENFNPNCSFWSYSKRTMTGYWSTQGCRLLTTNKTHTTCSCNHLTNFAVLMAHVEVKHSDAVHDLLLDVITWVGILLSLVCLLICIFTFCFFRGLQSDRNTIHKNLCISLFVAELLFLIGINRTDQPIACAVFAALLHFFFLAAFTWMFLEGVQLYIMLVEVFESEHSRRKYFYLVGYGMPALIVAVSAAVDYRSYGTDKVCWLRLDTYFIWSFIGPATLIIMLNVIFLGIALYKMFHHTAILKPESGCLDNIKSWVIGAIALLCLLGLTWAFGLMYINESTVIMAYLFTIFNSLQGMFIFIFHCVLQKKVRKEYGKCLRTHCCSGKSTESSIGSGKTSGSRTPGRYSTGSQSRIRRMWNDTVRKQSESSFITGDINSSASLNREGLLNNARDTSVMDTLPLNGNHGNSYSIASGEYLSNCVQIIDRGYNHNETALEKKILKELTSNYIPSYLNNHERSSEQNRNLMNKLVNNLGSGREDDAIVLDDATSFNHEESLGLELIHEESDAPLLPPRVYSTENHQPHHYTRRRIPQDHSESFFPLLTNEHTEDLQSPHRDSLYTSMPTLAGVAATESVTTSTQTEPPPAKCGDAEDVYYKSMPNLGSRNHVHQLHTYYQLGRGSSDGFIVPPNKDGTPPEGSSKGPAHLVTSL
# How the values were obtained:
# Assay in all cases: glycan array binding signal (z-score within array); higher = stronger binding
# Conditions in all cases: glycan notation: IUPAC condensed, linker removed
# Gal(b1-3)GlcNAc = target: Gal(b1-3)GlcNAc
# Method in brief: (§1)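 Negative Z-scores can be read as non-binding. The Z-score is calculated within each array and then averaged across arrays of one protein sequence at different concentrations or buffers and across linkers. Arrays, 3228 in all, were curated from the Consortium for Functional Glycomics database and kept only where the protein sequence was available.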
# [1] = target: Gal(b1-3)GlcNAc(a1-3)Gal(b1-4)GlcNAc
# Method in brief: as §1
# [2] = target: Gal(b1-3)GlcNAc(a1-6)Gal(b1-4)GlcNAc
# Method in brief: as §1
# [3] = target: Gal(b1-3)GlcNAc(b1-2)Man(a1-3)[Gal(b1-3)GlcNAc(b1-2)Man(a1-6)]Man(b1-4)GlcNAc(b1-4)GlcNAc
# Method in brief: as §1
# [4] = target: Gal(b1-3)GlcNAc(b1-2)Man(a1-3)[Gal(b1-3)GlcNAc(b1-2)Man(a1-6)]Man(b1-4)GlcNAc(b1-4)[Fuc(a1-6)]GlcNAc
# Method in brief: as §1
# [5] = target: Gal(b1-3)GlcNAc(b1-2)Man(a1-3)[GlcNAc(b1-4)][Gal(b1-3)GlcNAc(b1-2)Man(a1-6)]Man(b1-4)GlcNAc(b1-4)GlcNAc
# Method in brief: as §1
# [6] = target: Gal(b1-3)GlcNAc(b1-2)[Gal(b1-3)GlcNAc(b1-6)]Man(a1-6)[Gal(b1-3)GlcNAc(b1-2)Man(a1-3)]Man(b1-4)GlcNAc(b1-4)GlcNAc
# Method in brief: as §1
# [7] = target: Gal(b1-3)GlcNAc(b1-3)Gal(b1-3)GlcNAc
# Method in brief: as §1
# [8] = target: Gal(b1-3)GlcNAc(b1-3)Gal(b1-4)Glc
# Method in brief: as §1
# [9] = target: Gal(b1-3)GlcNAc(b1-3)Gal(b1-4)GlcNAc
# Method in brief: as §1
# [10] = target: Gal(b1-3)GlcNAc(b1-3)Gal(b1-4)GlcNAc(b1-6)[Gal(b1-3)GlcNAc(b1-3)]Gal(b1-4)Glc
# Method in brief: as §1
# [11] = target: Gal(b1-3)GlcNAc(b1-3)Gal(b1-4)[Fuc(a1-3)]GlcNAc(b1-6)[Gal(b1-3)GlcNAc(b1-3)]Gal(b1-4)Glc
# Method in brief: as §1
# [12] = target: Gal(b1-3)GlcNAc(b1-3)GalNAc
# Method in brief: as §1
# [13] = target: Gal(b1-3)GlcNAc(b1-6)Gal(b1-4)GlcNAc
# Method in brief: as §1
# [14] = target: Gal(b1-3)GlcNAc(b1-6)GalNAc
# Method in brief: as §1
# Gal(b1-3)GlcNAc6S = target: Gal(b1-3)GlcNAc6S
# Method in brief: as §1
# [15] = target: Gal(b1-3)[Fuc(a1-4)]GlcNAc
# Method in brief: as §1
# [16] = target: Gal(b1-3)[Fuc(a1-4)]GlcNAc(b1-2)Man(a1-3)[Gal(b1-3)[Fuc(a1-4)]GlcNAc(b1-2)Man(a1-6)]Man(b1-4)GlcNAc(b1-4)[Fuc(a1-6)]GlcNAc
# Method in brief: as §1
# [17] = target: Gal(b1-3)[Fuc(a1-4)]GlcNAc(b1-3)Gal(b1-3)[Fuc(a1-4)]GlcNAc
# Method in brief: as §1
# [18] = target: Gal(b1-3)[Fuc(a1-4)]GlcNAc(b1-3)Gal(b1-4)GlcNAc
# Method in brief: as §1
# [19] = target: Gal(b1-3)[Fuc(a1-4)]GlcNAc(b1-3)Gal(b1-4)[Fuc(a1-3)]GlcNAc
# Method in brief: as §1
# [20] = target: Gal(b1-3)[Fuc(a1-4)]GlcNAc(b1-6)GalNAc
# Method in brief: as §1
# [21] = target: Gal(b1-3)[GlcNAc(b1-6)]GalNAc
# Method in brief: as §1
# [22] = target: Gal(b1-3)[Neu5Ac(a2-6)]GalNAc
# Method in brief: as §1
# [23] = target: Gal(b1-3)[Neu5Ac(a2-6)]GlcNAc(b1-6)Gal(b1-4)Glc
# Method in brief: as §1
# [24] = target: Gal(b1-3)[Neu5Ac(b2-6)]GalNAc
# Method in brief: as §1
# Gal(b1-4)Gal = target: Gal(b1-4)Gal
# Method in brief: as §1
# [25] = target: Gal(b1-4)GalNAc(a1-3)[Fuc(a1-2)]Gal(b1-4)GlcNAc
# Method in brief: as §1
# [26] = target: Gal(b1-4)GalNAc(b1-3)[Fuc(a1-2)]Gal(b1-4)GlcNAc
# Method in brief: as §1
# Gal(b1-4)Glc = target: Gal(b1-4)Glc
# Method in brief: as §1
# Gal(b1-4)Glc6S = target: Gal(b1-4)Glc6S
# Method in brief: as §1
# Gal(b1-4)GlcNAc = target: Gal(b1-4)GlcNAc
# Method in brief: as §1
# [27] = target: Gal(b1-4)GlcNAc(a1-6)Gal(b1-4)GlcNAc
# Method in brief: as §1
# Gal(b1-4)GlcNAc(b1-2)Man = target: Gal(b1-4)GlcNAc(b1-2)Man
# Method in brief: as §1
# [28] = target: Gal(b1-4)GlcNAc(b1-2)Man(a1-3)Man(b1-4)GlcNAc(b1-4)GlcNAc
# Method in brief: as §1
# [29] = target: Gal(b1-4)GlcNAc(b1-2)Man(a1-3)[Gal(b1-4)GlcNAc(b1-2)Man(a1-6)]Man(b1-4)GlcNAc(b1-4)GlcNAc
# Method in brief: as §1
# [30] = target: Gal(b1-4)GlcNAc(b1-2)Man(a1-3)[Gal(b1-4)GlcNAc(b1-2)Man(a1-6)]Man(b1-4)GlcNAc(b1-4)[Fuc(a1-6)]GlcNAc
# Method in brief: as §1
# [31] = target: Gal(b1-4)GlcNAc(b1-2)Man(a1-3)[Gal(b1-4)GlcNAc(b1-2)][GlcNAc(b1-4)]Man(b1-4)GlcNAc(b1-4)GlcNAc
# Method in brief: as §1
# [32] = target: Gal(b1-4)GlcNAc(b1-2)Man(a1-3)[GlcNAc(b1-2)Man(a1-6)]Man(b1-4)GlcNAc(b1-4)GlcNAc
# Method in brief: as §1
# [33] = target: Gal(b1-4)GlcNAc(b1-2)Man(a1-3)[Man(a1-6)]Man(b1-4)GlcNAc(b1-4)GlcNAc
# Method in brief: as §1
# [34] = target: Gal(b1-4)GlcNAc(b1-2)Man(a1-6)Man(b1-4)GlcNAc(b1-4)GlcNAc
# Method in brief: as §1
# [35] = target: Gal(b1-4)GlcNAc(b1-2)Man(a1-6)[GlcNAc(b1-2)Man(a1-3)]Man(b1-4)GlcNAc(b1-4)GlcNAc
# Method in brief: as §1
# [36] = target: Gal(b1-4)GlcNAc(b1-2)Man(a1-6)[Man(a1-3)]Man(b1-4)GlcNAc(b1-4)GlcNAc
# Method in brief: as §1
# [37] = target: Gal(b1-4)GlcNAc(b1-2)[Gal(b1-4)GlcNAc(b1-4)]Man(a1-3)[Gal(b1-4)GlcNAc(b1-2)Man(a1-6)]Man(b1-4)GlcNAc(b1-4)GlcNAc
# Method in brief: as §1
# [38] = target: Gal(b1-4)GlcNAc(b1-2)[Gal(b1-4)GlcNAc(b1-4)]Man(a1-3)[Gal(b1-4)GlcNAc(b1-2)[Gal(b1-4)GlcNAc(b1-6)]Man(a1-6)]Man(b1-4)GlcNAc(b1-4)GlcNAc
# Method in brief: as §1
binder,measurement,setting,value
B1,glycan array binding signal (z-score),Gal(b1-3)GlcNAc,-1.67
same,glycan array binding signal (z-score),[1],-0.57
same,glycan array binding signal (z-score),[2],-0.347
same,glycan array binding signal (z-score),[3],1.77
same,glycan array binding signal (z-score),[4],0.213
same,glycan array binding signal (z-score),[5],-0.166
same,glycan array binding signal (z-score),[6],1.4
same,glycan array binding signal (z-score),[7],-0.191
same,glycan array binding signal (z-score),[8],1.37
same,glycan array binding signal (z-score),[9],0.051
same,glycan array binding signal (z-score),[10],-2.05
same,glycan array binding signal (z-score),[11],0.43
same,glycan array binding signal (z-score),[12],-0.127
same,glycan array binding signal (z-score),[13],-0.605
same,glycan array binding signal (z-score),[14],0.017
same,glycan array binding signal (z-score),Gal(b1-3)GlcNAc6S,0.751
same,glycan array binding signal (z-score),[15],-0.275
same,glycan array binding signal (z-score),[16],-0.727
same,glycan array binding signal (z-score),[17],-0.618
same,glycan array binding signal (z-score),[18],-0.804
same,glycan array binding signal (z-score),[19],0.189
same,glycan array binding signal (z-score),[20],1.62
same,glycan array binding signal (z-score),[21],-0.67
same,glycan array binding signal (z-score),[22],0.244
same,glycan array binding signal (z-score),[23],-1.59
same,glycan array binding signal (z-score),[24],-0.594
same,glycan array binding signal (z-score),Gal(b1-4)Gal,0.444
same,glycan array binding signal (z-score),[25],-0.765
same,glycan array binding signal (z-score),[26],0.394
same,glycan array binding signal (z-score),Gal(b1-4)Glc,0.53
same,glycan array binding signal (z-score),Gal(b1-4)Glc6S,0.079
same,glycan array binding signal (z-score),Gal(b1-4)GlcNAc,-0.454
same,glycan array binding signal (z-score),[27],-0.137
same,glycan array binding signal (z-score),Gal(b1-4)GlcNAc(b1-2)Man,-1.06
same,glycan array binding signal (z-score),[28],-0.338
same,glycan array binding signal (z-score),[29],-0.559
same,glycan array binding signal (z-score),[30],-0.465
same,glycan array binding signal (z-score),[31],-0.341
same,glycan array binding signal (z-score),[32],0.359
same,glycan array binding signal (z-score),[33],2.01
same,glycan array binding signal (z-score),[34],3.58
same,glycan array binding signal (z-score),[35],-0.638
same,glycan array binding signal (z-score),[36],0.365
same,glycan array binding signal (z-score),[37],0.234
same,glycan array binding signal (z-score),[38],-1.6

# Laid out differently: entries from further up.
binder | measurement | setting | value
B1 | glycan array binding signal (z-score) | [9] | 0.051
same | glycan array binding signal (z-score) | [22] | 0.244
same | glycan array binding signal (z-score) | Gal(b1-4)Glc6S | 0.079
